We go through one molecule from patent publication US20210095041A1.

Results are given in words; binding and its absence hold for the method and conditions named. Some entries that bind do so weakly or less than the wild type.

The target of test [1] is recombinant cynomolgus monkey CD39 (cynomolgus monkey). As to the kind of experiment: BLI (Octet), AHC biosensor.
Test [2] has the same target. As to the kind of experiment: BLI (Octet).

B1: clone 22 (antibody, human IgG4 S228P, kappa, V domains shown)
VH: QVQLVQSGAEVKKPGSSVKVSCKASGGTFSSEGISWVRQAPGQGLEWMGSILPIFGTANYAQKFQGRVTITADESTSTAYMELSSLRSEDTAVYYCAREAGYYRYRYFDLWGRGTLVTVSS
VL: EIVMTQSPATLSVSPGERATLSCRASQSVSSNLAWYQQKPGQAPRLLIYGASTRATGIPARFSGSGSGTEFTLTISSLQSEDFAVYYCQQHALWPLTFGGGTKVEIKR
As to B1, the binding entry in test [1] and in test [2] was “binds” throughout.
